Data as given in PubChem BioAssay AID1224828 (NIAID, 2016).
This is an unselected part of about 17,000 deposited reagents. 762 of them (4.5%) count as active. 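Active calls include both raised and lowered p65 entry, mostly lowered; wells with fewer than 50 cells lack a z-score.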 The raw values are shown without normalisation. Entries without a mark were called inactive.

Test: 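Find genes required for NF-kappaB p65 moving into the nucleus after LPS in mouse macrophages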 (primary screen)
System: mouse RAW264.7 G9 macrophage reporter cells (GFP-p65, Tnf promoter-mCherry)
Reagent: siRNA pool against mouse genes, 100 nM
Duration: 2 days siRNA transfection, then 40 min LPS before fixation
Conditions: LPS (Salmonella minnesota R595) at 10 ng/ml
Detection: 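Microscopy ratio of nuclear to perinuclear-ring GFP-p65 signal, scaled to the plate median; gene score is the average of two replicate robust z-scores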
Direction: p65 translocation robust z-score: higher = more nuclear NF-kappaB p65 after LPS than the plate median; nuclear/cytoplasmic p65 ratio: higher = more nuclear NF-kappaB p65
Active means: 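Active if robust z is above 3.3 (negative regulators) or below -1.56, the Tlr4 control median (positive regulators); activity score 50 or more; control wells not called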
Calls: active = hit (p65 shift raised or lowered); inactive = no clear change

p65 translocation robust z-score | nuclear/cytoplasmic p65 ratio, rep 1 | nuclear/cytoplasmic p65 ratio, rep 2 | low cell count flag | gene | PubChem SID
– | 1.28 | 1.63 | fewer than 50 cells per well; well left out of scoring | Stpg1 | SID315475627
-1.14 | 1.36 | 1.4 | enough cells to score | Ptpn6 | SID315467163
– | 1.32 | 1.18 | fewer than 50 cells per well; well left out of scoring | Exosc5 | SID315470652
-0.37 | 1.37 | 1.16 | enough cells to score | Vdac2 | SID315469990
-1.44 | 1.4 | 1.23 | enough cells to score | Or1e1f | SID315480032
1.43 | 2.08 | 1.61 | enough cells to score | Nipsnap3b | SID315472499
1.34 | 1.68 | 1.54 | enough cells to score | Itgbl1 | SID315478254
0.26 | 1.66 | 1.28 | enough cells to score | Crb1 | SID315477242
0.37 | 1.53 | 1.43 | enough cells to score | Nfkb1 | SID315468156
-1.51 | 1.47 | 1.18 | enough cells to score | Eefsec | SID315472165
1.16 | 1.57 | 1.56 | enough cells to score | Sertm1 | SID315481541
-0.07 | 1.66 | 1.55 | enough cells to score | Efcab14 | SID315478800
0.38 | 1.45 | 1.28 | enough cells to score | Scd3 | SID315470735
– | 1.45 | 1.36 | fewer than 50 cells per well; well left out of scoring | Or14c45 | SID315480270
– | 1.44 | 1.27 | fewer than 50 cells per well; well left out of scoring | Or2at1 | SID315480041
-1.34 | 1.29 | 1.09 | enough cells to score | Zhx3 | SID315481397
-1.86 (active) | 1.42 | 1.14 | enough cells to score | Cebpb | SID315465930
2.92 | 1.95 | 2.3 | enough cells to score | Ms4a6c | SID315474756
0.72 | 1.51 | 1.66 | enough cells to score | Nipal2 | SID315478262
-0.09 | 1.45 | 1.34 | enough cells to score | Lrrcc1 | SID315474286
1.25 | 1.56 | 1.73 | enough cells to score | Hibadh | SID315471928
0.89 | 1.86 | 1.48 | enough cells to score | Gucy2e | SID315467082
1.71 | 1.96 | 1.78 | enough cells to score | Atoh8 | SID315474184
-0.55 | 1.32 | 1.35 | enough cells to score | Ergic1 | SID315473040
0.7 | 1.67 | 1.51 | enough cells to score | Kcnmb2 | SID315474543
0.99 | 1.58 | 1.79 | enough cells to score | Adgrl3 | SID315481080
0.02 | 1.45 | 1.36 | enough cells to score | Grik5 | SID315467032
– | 1.35 | 1.33 | fewer than 50 cells per well; well left out of scoring | Slc35a3 | SID315478742

10 successive records already listed:
p65 translocation robust z-score | nuclear/cytoplasmic p65 ratio, rep 1 | nuclear/cytoplasmic p65 ratio, rep 2 | low cell count flag | gene | PubChem SID
-1.34 | 1.29 | 1.09 | enough cells to score | Zhx3 | SID315481397
-1.86 (active) | 1.42 | 1.14 | enough cells to score | Cebpb | SID315465930
2.92 | 1.95 | 2.3 | enough cells to score | Ms4a6c | SID315474756
0.72 | 1.51 | 1.66 | enough cells to score | Nipal2 | SID315478262
-0.09 | 1.45 | 1.34 | enough cells to score | Lrrcc1 | SID315474286
1.25 | 1.56 | 1.73 | enough cells to score | Hibadh | SID315471928
0.89 | 1.86 | 1.48 | enough cells to score | Gucy2e | SID315467082
1.71 | 1.96 | 1.78 | enough cells to score | Atoh8 | SID315474184
-0.55 | 1.32 | 1.35 | enough cells to score | Ergic1 | SID315473040
0.7 | 1.67 | 1.51 | enough cells to score | Kcnmb2 | SID315474543

Further entries follow.
p65 translocation robust z-score | nuclear/cytoplasmic p65 ratio, rep 1 | nuclear/cytoplasmic p65 ratio, rep 2 | low cell count flag | gene | PubChem SID
-0.4 | 1.4 | 1.3 | enough cells to score | Hap1 | SID315467143
-2.54 (active) | 1.16 | 1.21 | enough cells to score | Sf3a1 | SID315473044
0.21 | 1.53 | 1.22 | enough cells to score | Pde10a | SID315470270
-0.3 | 1.36 | 1.53 | enough cells to score | Dido1 | SID315470201
-0.65 | 1.37 | 1.27 | enough cells to score | Dido1 | SID315470202
1.53 | 1.37 | 1.74 | enough cells to score | A230059G12Rik | SID315481197
-0.14 | 1.49 | 1.97 | enough cells to score | Mtnr1a | SID315468022
2.92 | 1.84 | 1.53 | enough cells to score | Stab2 | SID315477394
– | 1.2 | 1 | fewer than 50 cells per well; well left out of scoring | Zwilch | SID315473362
0.8 | 1.97 | 1.6 | enough cells to score | Eid2 | SID315481846
1.36 | 1.78 | 2 | enough cells to score | Cyp2d13 | SID315473533
-0.64 | 1.39 | 1.28 | enough cells to score | Dact1 | SID315471969
-0.99 | 1.59 | 1.47 | enough cells to score | Mtch2 | SID315471527
-0.34 | 1.47 | 1.47 | enough cells to score | Slc5a2 | SID315479897
1.25 | 1.62 | 1.7 | enough cells to score | Abca13 | SID315480760
-2.66 (active) | 1.07 | 1.05 | enough cells to score | Dtx3 | SID315475750
0.27 | 1.62 | 1.49 | enough cells to score | Or1l8 | SID315480277
– | 1.15 | 1.21 | fewer than 50 cells per well; well left out of scoring | H2-D1 | SID315467104
1.17 | 1.6 | 1.38 | enough cells to score | Or8g26 | SID315480014
-0.59 | 1.46 | 1.18 | enough cells to score | Dcaf11 | SID315470688
0.96 | 1.52 | 1.59 | enough cells to score | Prkn | SID315470864
-0.46 | 1.34 | 1.35 | enough cells to score | Galr1 | SID315466821
0.64 | 1.48 | 1.49 | enough cells to score | Fgf17 | SID315466666
0.21 | 1.46 | 1.45 | enough cells to score | Kcns1 | SID315467601
-0.47 | 1.57 | 1.52 | enough cells to score | Sp140l2 | SID315481984
-0.13 | 1.65 | 1.55 | enough cells to score | Or4c101 | SID315480543
3 | 1.76 | 1.58 | enough cells to score | Ugdh | SID315469927
1.15 | 1.65 | 1.7 | enough cells to score | Qdpr | SID315476904
1.5 | 1.55 | 1.83 | enough cells to score | Krtap5-4 | SID315470837
1.31 | 1.6 | 1.65 | enough cells to score | Ppp1r9a | SID315479699
-0.93 | 1.53 | 1.27 | enough cells to score | Galk2 | SID315473949
